Source: PubChem BioAssay AID504764 (Drosophila RNAi Screening Center, 2011)
Test: 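Genome-wide screen for regulators of Notch-driven gene expression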 (primary screen). Cells: Drosophila Kc167 cells. Knock-down reagent: long dsRNA against Drosophila genes. Duration: about 5 days (4 days dsRNA, then 24 h after transfection). Challenge: transfection of constitutively active membrane-tethered Notch lacking the extracellular domain, read 24 h later. Read-out: 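Firefly luciferase from an E(spl)m3 reporter with active Notch, plus control-promoter and uninduced reporter wells for normalisation; unnormalised counts, duplicate wells a and b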. Direction: induced reporter light, run 1, well a and induced reporter light, run 1, well b: higher = more light from the Notch target reporter with active Notch; control promoter light, run 1, well a and control promoter light, run 1, well b: higher = more light from the viral control promoter (cell number, transfection, viability); uninduced reporter light, run 1, well a: higher = more light from the Notch target reporter without active Notch. Active means: 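Hit if the duplicate-averaged log2 ratio of induced to control-promoter light gives a plate-wise z beyond ±2, or induced to uninduced beyond ±1.8; weak-control or discordant-duplicate wells dropped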. Meaning of the calls: active = modifier hit (raised or lowered Notch signal); inactive = not a hit.
The deposit covers about 22,000 reagents; this is an unselected part of those that have a named target and a result. Of all reagents, 403 (1.9%) got an active call. 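Unnormalised raw counts per well; ratio z-scores behind the hit calls and whether each hit raises or lowers signal are not deposited.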 The numbers tell different reagents against one gene apart. Names joined by + are all predicted targets of the reagent. The record does not give: the amount of reagent.

| Gene | dsRNA no. | induced reporter light, run 1, well a | induced reporter light, run 1, well b | control promoter light, run 1, well a | control promoter light, run 1, well b | uninduced reporter light, run 1, well a | Call |
| --- | --- | --- | --- | --- | --- | --- | --- |
| tim (timeless) | 1 | 1.88e5 | 1.62e5 | 1.90e5 | 1.90e5 | 14605 | inactive |
| CG4194 | 1 | 1.43e5 | 1.54e5 | 2.24e5 | 2.34e5 | 10310 | inactive |
| SkpE (SKP1-related E) | 1 | 83615 | 90185 | 65715 | 1.14e5 | 10285 | inactive |
| CG14186 | 1 | 1.57e5 | 1.25e5 | 70765 | 93430 | 11590 | inactive |
| Rab3-GEF (Rab3 GDP-GTP exchange factor) | 1 | 87855 | 79525 | 1.05e5 | 73340 | 12055 | inactive |
| Rab3-GEF (Rab3 GDP-GTP exchange factor) | 2 | 78890 | 89570 | 86160 | 87080 | 15075 | inactive |
| Rab3-GEF (Rab3 GDP-GTP exchange factor) | 3 | 14355 | 10175 | 10165 | 9650 | 5060 | inactive |
| Obp99a (Odorant-binding protein 99a) | 1 | 1.06e5 | 1.03e5 | 1.34e5 | 1.37e5 | 7920 | inactive |
| Kif3C (Kinesin family member 3C) | 1 | 1.14e5 | 1.09e5 | 1.69e5 | 2.01e5 | 8630 | inactive |
| Kif3C (Kinesin family member 3C) | 2 | 1.61e5 | 1.37e5 | 2.22e5 | 1.78e5 | 9688 | inactive |
| hoe2 (hoepel2) | 1 | 1.83e5 | 1.64e5 | 1.61e5 | 1.72e5 | 11250 | inactive |
| ppan (peter pan) | 1 | 1.53e5 | 1.52e5 | 2.17e5 | 1.95e5 | 14170 | inactive |
| CG14841 | 1 | 2.01e5 | 1.97e5 | 1.76e5 | 1.90e5 | 16238 | inactive |
| CG14384 | 1 | 2.82e5 | 2.91e5 | 2.33e5 | 2.59e5 | 22075 | inactive |
| CG13083 | 1 | 57285 | 24655 | 22115 | 31885 | 2275 | inactive |
| deltaCOP (Coat Protein (coatomer) delta) | 1 | 17165 | 16160 | 35495 | 38340 | 1095 | inactive |
| CG8399 | 1 | 67090 | 72980 | 79990 | 1.04e5 | 5300 | active |
| Cubn (Cubilin) | 1 | 2.13e5 | 1.68e5 | 2.36e5 | 2.12e5 | 13370 | inactive |
| ND-15 (NADH dehydrogenase (ubiquinone) 15 kDa subunit) | 1 | 1.23e5 | 1.41e5 | 1.60e5 | 1.90e5 | 13215 | inactive |
| pyx (pyrexia) | 1 | 1.08e5 | 1.29e5 | 1.58e5 | 1.12e5 | 7235 | inactive |
| pyx (pyrexia) | 2 | 84140 | 97930 | 1.53e5 | 1.18e5 | 4588 | inactive |
| Arpc3A (Actin-related protein 2/3 complex, subunit 3A) | 1 | 1.93e5 | 2.16e5 | 1.82e5 | 1.80e5 | 13360 | inactive |
| anchor | 1 | 1.19e5 | 1.27e5 | 61645 | 71800 | 9950 | inactive |
| CG14642 | 1 | 1.24e5 | 1.24e5 | 79370 | 94175 | 7670 | inactive |
| ATPsynB (ATP synthase, subunit B) | 1 | 46215 | 44585 | 62485 | 34375 | 4315 | active |
| ImpE3 (Ecdysone-inducible gene E3) | 1 | 48645 | 51550 | 49125 | 44370 | 5865 | inactive |
| CG34198 | 1 | 1.09e5 | 1.20e5 | 1.74e5 | 1.44e5 | 9185 | inactive |
| kek3 (kekkon 3) | 1 | 1.28e5 | 1.48e5 | 1.54e5 | 1.54e5 | 11790 | inactive |
| kek3 (kekkon 3) | 2 | – | – | – | – | – | active |
| Fip1 (Factor interacting with poly(A) polymerase 1) | 1 | 83240 | 76995 | 43890 | 54410 | 6510 | inactive |
| ntc (nutcracker) | 1 | 1.50e5 | 1.21e5 | 1.00e5 | 40060 | 10795 | inactive |
| CG13003 | 1 | 1.12e5 | 91765 | 1.46e5 | 1.14e5 | 14300 | inactive |
| Nup160 + RfC38 | 1 | 1.79e5 | 2.05e5 | 1.91e5 | 2.04e5 | 17270 | inactive |
| AstC-R1 (Allatostatin C receptor 1) | 1 | 2.33e5 | 2.08e5 | 2.87e5 | 2.48e5 | 11232 | inactive |

A stretch taken from the entries so far, for reference:
| Gene | dsRNA no. | induced reporter light, run 1, well a | induced reporter light, run 1, well b | control promoter light, run 1, well a | control promoter light, run 1, well b | uninduced reporter light, run 1, well a | Call |
| --- | --- | --- | --- | --- | --- | --- | --- |
| CG34198 | 1 | 1.09e5 | 1.20e5 | 1.74e5 | 1.44e5 | 9185 | inactive |
| kek3 (kekkon 3) | 1 | 1.28e5 | 1.48e5 | 1.54e5 | 1.54e5 | 11790 | inactive |
